Measurements reported in PubChem BioAssay AID1259405 (NCATS, 2018)

Purpose: 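Knock-downs that lift recombinant protein yield in hamster ovary cells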 (primary screen)
Cell system: Chinese hamster CHO-K1 ovary cells with stable secreted eGFP expression
Reagent: single siRNA against mouse genes, 0.8 pmol siRNA per well (2 µl of 400 nM stock)
Duration: 3 days
Measurement: 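Percent of the per-plate non-targeting control median for intracellular GFP per well by laser scanning cytometry and for cell viability by ATP luminescence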
Reading the numbers: GFP, % of control: higher = more GFP per well, higher productivity; viability (ATP), % of control: higher = more viable cells (more ATP)
Active means: 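Called active when intracellular GFP, relative to negative control, is at or above 120%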
In all, the deposit lists about 50,000 reagents; this is a part drawn at random. About 4,000 of all reagents (8%) count as active. 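Mouse siRNA library applied to hamster cells; one well for each siRNA.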 Unmarked entries are inactive. The numbers tell different reagents against one gene apart. No sequences are given here.

Uba1y (ubiquitin-activating enzyme, Chr Y) #1: GFP, % of control = 54.6; viability (ATP), % of control = 56.5
Uba1y (ubiquitin-activating enzyme, Chr Y) #2: GFP, % of control = 64.2; viability (ATP), % of control = 76.1
Uba1y (ubiquitin-activating enzyme, Chr Y) #3: GFP, % of control = 69; viability (ATP), % of control = 57.8
Tas2r123 (taste receptor, type 2, member 123) #1: GFP, % of control = 76.3; viability (ATP), % of control = 84.6
Tas2r123 (taste receptor, type 2, member 123) #2: GFP, % of control = 0.528; viability (ATP), % of control = 219
Tas2r123 (taste receptor, type 2, member 123) #3: GFP, % of control = 65.9; viability (ATP), % of control = 65.6
Or52h1 (olfactory receptor family 52 subfamily H member 1) #1: GFP, % of control = 147 (active); viability (ATP), % of control = 99.3
Or52h1 (olfactory receptor family 52 subfamily H member 1) #2: GFP, % of control = 63.5; viability (ATP), % of control = 85.5
Or52h1 (olfactory receptor family 52 subfamily H member 1) #3: GFP, % of control = 28.8; viability (ATP), % of control = 64.2
Fbl (fibrillarin) #1: GFP, % of control = 116; viability (ATP), % of control = 74.3
Fbl (fibrillarin) #2: GFP, % of control = 96.9; viability (ATP), % of control = 78.8
Fbl (fibrillarin) #3: GFP, % of control = 127 (active); viability (ATP), % of control = 95.5
Btbd6 (BTB domain containing 6) #1: GFP, % of control = 167 (active); viability (ATP), % of control = 117
Btbd6 (BTB domain containing 6) #2: GFP, % of control = 58.7; viability (ATP), % of control = 56
Btbd6 (BTB domain containing 6) #3: GFP, % of control = 97; viability (ATP), % of control = 126
Npsr1 (neuropeptide S receptor 1) #1: GFP, % of control = 106; viability (ATP), % of control = 86.9
Npsr1 (neuropeptide S receptor 1) #2: GFP, % of control = 98.4; viability (ATP), % of control = 82.3
Npsr1 (neuropeptide S receptor 1) #3: GFP, % of control = 55.7; viability (ATP), % of control = 50.9
Mrgprb8 (MAS-related GPR, member B8) #1: GFP, % of control = 78; viability (ATP), % of control = 99.2
Mrgprb8 (MAS-related GPR, member B8) #2: GFP, % of control = 68.2; viability (ATP), % of control = 81.4
Mrgprb8 (MAS-related GPR, member B8) #3: GFP, % of control = 58.3; viability (ATP), % of control = 50.5
Rhov (ras homolog family member V) #1: GFP, % of control = 72; viability (ATP), % of control = 105
Rhov (ras homolog family member V) #2: GFP, % of control = 54.2; viability (ATP), % of control = 86.6
Rhov (ras homolog family member V) #3: GFP, % of control = 49.8; viability (ATP), % of control = 63.2
Aqp4 (aquaporin 4) #1: GFP, % of control = 106; viability (ATP), % of control = 79.5
Aqp4 (aquaporin 4) #2: GFP, % of control = 94.8; viability (ATP), % of control = 102
Aqp4 (aquaporin 4) #3: GFP, % of control = 113; viability (ATP), % of control = 91.3
BC048671 (cDNA sequence BC048671) #1: GFP, % of control = 41.9; viability (ATP), % of control = 29.8
BC048671 (cDNA sequence BC048671) #2: GFP, % of control = 89.8; viability (ATP), % of control = 84
BC048671 (cDNA sequence BC048671) #3: GFP, % of control = 118; viability (ATP), % of control = 85.3
Gstt1 (glutathione S-transferase, theta 1) #1: GFP, % of control = 88.6; viability (ATP), % of control = 115
Gstt1 (glutathione S-transferase, theta 1) #2: GFP, % of control = 67.7; viability (ATP), % of control = 82.8
Gstt1 (glutathione S-transferase, theta 1) #3: GFP, % of control = 40.5; viability (ATP), % of control = 58.8
Or51l4 (olfactory receptor family 51 subfamily L member 4) #1: GFP, % of control = 83.2; viability (ATP), % of control = 71.6
Or51l4 (olfactory receptor family 51 subfamily L member 4) #2: GFP, % of control = 74.2; viability (ATP), % of control = 66.9
Or51l4 (olfactory receptor family 51 subfamily L member 4) #3: GFP, % of control = 58.9; viability (ATP), % of control = 73.5
Vmn2r66 (vomeronasal 2, receptor 66) #1: GFP, % of control = 80.8; viability (ATP), % of control = 82
Vmn2r66 (vomeronasal 2, receptor 66) #2: GFP, % of control = 88.2; viability (ATP), % of control = 77.6
Vmn2r66 (vomeronasal 2, receptor 66) #3: GFP, % of control = 141 (active); viability (ATP), % of control = 63.9
Nploc4 (NPL4 homolog, ubiquitin recognition factor) #1: GFP, % of control = 56.4; viability (ATP), % of control = 26.8
Nploc4 (NPL4 homolog, ubiquitin recognition factor) #2: GFP, % of control = 62; viability (ATP), % of control = 77.4
Nploc4 (NPL4 homolog, ubiquitin recognition factor) #3: GFP, % of control = 121 (active); viability (ATP), % of control = 92.1

Not a retest: 3 of the entries above.
Mrgprb8 (MAS-related GPR, member B8) #2: GFP, % of control = 68.2; viability (ATP), % of control = 81.4
Mrgprb8 (MAS-related GPR, member B8) #3: GFP, % of control = 58.3; viability (ATP), % of control = 50.5
Rhov (ras homolog family member V) #1: GFP, % of control = 72; viability (ATP), % of control = 105
